Assay results as given in publication PMC11844294.
No constants are given. Whether binding was seen depends on the method and setting. In cells and extracts the contact can be indirect. Some results given as binding are weak or reduced against the parent protein; the word gives no strength.

The chains behind the UniProt entries cited, without tags or fusion partners.
UniProt O95819: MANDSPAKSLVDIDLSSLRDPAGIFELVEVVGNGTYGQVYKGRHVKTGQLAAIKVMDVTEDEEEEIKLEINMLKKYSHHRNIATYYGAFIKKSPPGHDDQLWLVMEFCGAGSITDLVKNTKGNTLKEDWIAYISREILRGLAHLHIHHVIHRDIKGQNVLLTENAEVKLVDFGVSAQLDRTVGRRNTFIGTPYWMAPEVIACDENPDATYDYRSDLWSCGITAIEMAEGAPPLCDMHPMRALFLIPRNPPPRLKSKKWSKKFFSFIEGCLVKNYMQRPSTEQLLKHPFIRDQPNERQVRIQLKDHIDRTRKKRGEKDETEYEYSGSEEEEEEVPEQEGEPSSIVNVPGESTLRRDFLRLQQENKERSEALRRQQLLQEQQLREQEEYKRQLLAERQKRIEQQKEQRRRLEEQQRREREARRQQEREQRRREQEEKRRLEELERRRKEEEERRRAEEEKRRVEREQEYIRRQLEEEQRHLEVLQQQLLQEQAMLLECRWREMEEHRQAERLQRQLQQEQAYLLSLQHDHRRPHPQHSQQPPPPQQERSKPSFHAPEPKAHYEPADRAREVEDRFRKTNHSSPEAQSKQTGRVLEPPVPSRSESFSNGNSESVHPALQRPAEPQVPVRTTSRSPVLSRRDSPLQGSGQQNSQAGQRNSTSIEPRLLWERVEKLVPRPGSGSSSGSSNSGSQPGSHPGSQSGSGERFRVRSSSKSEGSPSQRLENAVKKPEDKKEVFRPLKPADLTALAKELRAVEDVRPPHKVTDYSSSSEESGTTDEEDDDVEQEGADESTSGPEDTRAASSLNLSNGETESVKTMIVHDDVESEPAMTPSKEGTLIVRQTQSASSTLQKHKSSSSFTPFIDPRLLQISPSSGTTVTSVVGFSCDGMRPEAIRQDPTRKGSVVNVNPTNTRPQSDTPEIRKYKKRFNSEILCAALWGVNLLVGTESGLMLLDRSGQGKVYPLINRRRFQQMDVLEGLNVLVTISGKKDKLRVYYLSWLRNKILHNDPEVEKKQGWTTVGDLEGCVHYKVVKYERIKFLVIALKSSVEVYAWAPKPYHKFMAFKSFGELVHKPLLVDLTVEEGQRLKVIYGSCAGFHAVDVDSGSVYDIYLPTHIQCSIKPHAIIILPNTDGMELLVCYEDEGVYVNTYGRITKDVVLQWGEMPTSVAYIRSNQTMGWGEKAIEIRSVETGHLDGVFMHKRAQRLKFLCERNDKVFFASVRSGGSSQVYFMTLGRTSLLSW

Target: T1, Hyaluronan mediated motility receptor (HMMR) (human (endogenous in A549, H1299)) (UniProt O75330)
T1 sequence: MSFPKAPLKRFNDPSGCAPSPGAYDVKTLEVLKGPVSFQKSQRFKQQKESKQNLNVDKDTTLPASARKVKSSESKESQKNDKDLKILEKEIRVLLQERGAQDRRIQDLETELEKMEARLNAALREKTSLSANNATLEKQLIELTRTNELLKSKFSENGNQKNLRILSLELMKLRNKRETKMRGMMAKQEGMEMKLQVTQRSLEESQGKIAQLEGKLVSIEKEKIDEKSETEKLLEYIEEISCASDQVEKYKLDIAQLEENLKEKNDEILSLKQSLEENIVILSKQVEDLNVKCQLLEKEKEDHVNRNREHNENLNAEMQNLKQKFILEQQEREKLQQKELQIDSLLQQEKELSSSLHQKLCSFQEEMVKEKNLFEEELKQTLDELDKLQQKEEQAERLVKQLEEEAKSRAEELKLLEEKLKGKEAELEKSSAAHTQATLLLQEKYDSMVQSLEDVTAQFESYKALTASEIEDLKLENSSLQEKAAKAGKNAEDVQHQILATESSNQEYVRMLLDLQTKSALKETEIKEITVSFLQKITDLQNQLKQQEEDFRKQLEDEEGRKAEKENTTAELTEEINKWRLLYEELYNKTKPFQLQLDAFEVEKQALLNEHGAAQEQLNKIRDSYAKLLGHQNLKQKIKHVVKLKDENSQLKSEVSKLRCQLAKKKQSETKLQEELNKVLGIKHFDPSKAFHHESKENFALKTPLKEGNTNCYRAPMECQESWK
Test: co-IP; endogenous co-IP from A549 or H1299 lysate (IP lysis buffer with phosphatase and protease inhibitors), overnight with IgG or specific antibodies, protein A/G magnetic beads, 4°C, Western blot

- binding: binds
Substance: Mitogen-activated protein kinase kinase kinase kinase 4 (MAP4K4) (from UniProt O95819 1-1239)
